The target of test [1] is B. fragilis Cmr3 (Bacteroides fragilis).
Test [2] has the same target. This is another data set of the same source.

Where a chain is given by its changes, count along the chain named. Names and notes keep the numbering of the source. Like-named read-outs stand apart in the source and are kept apart here. Results are given in words; binding and its absence hold for the method and conditions named. Binding seen in cells or lysates may run through a third protein. Binding calls can cover weak binding; strength is not graded here.

B1: B. fragilis Cmr6 (protein, UniProt A0A2M9V7I0 1-314)
chain: MPKNYTLQNASNLGWLFYKDYYRQEPNVDFISTQGKESDTTADFFRKTNQRITAYQLNSESPLVAAFNNHFGTPLQLKTIYPGLITGSGLPHQTGSKGEFKLGFQFDYTTGLPYIPGSSIKGTLRSMFPFSLKDKGSTKRILPEYRKERMEYIRDLIIEVTNINEISDTEIQALEYAIFTNSTPSGKTIEFSLEEKDVFYDAFVADSKDGVMLSDDYITPHGENPLKDPKPILFLKIRPDVTINFYFKLCTTHLYKEKVCSSKQIEEIKKQNDFSSSDYKMITAHQKRNLFEKILLCIGIGAKTNIGYGQLKKL
For the molecule B1, the binding entry in test [1] is listed as “binds”.

B2: B. fragilis Cmr4 (Cas7) D27A (protein, UniProt A0A9X9NER2 1-279)
chain: MTTRMYVINTLSNMHVGSGEVNYGVIANLIQRDSVTNLPNINSSGLKGAIREYFKENEDLVRELFGSAPRDEKTLPGKVRFFEANLLSMPVRSDKVPFLMAISDEVLQELITKMKFFNCEEATQYISHLSTLLDNIKTQAQGTDFAYVFDPLLQGAIIEEVSIRATCPSHIPLQPSLKKLLGDRLVILSHKYFSILSDDNHLPVLSRNNLENGQSANLWYEQVLPRYSRLYFMLMDGNAQSEYLKKFRDTLCTPSTIIQIGANASIGYGYCQISELSPF
As to B2, the binding entry in test [2] is listed as “binds”.

B3: B. fragilis Cmr4 (Cas7), wild type (protein, UniProt A0A9X9NER2 1-279)
chain: B2 chain with A27D
As to B3, the binding entry in test [1] is recorded as “binds”.

(Values after PMC10600005 (Nature, 2023).)
